Values from PubChem BioAssay AID686938 (Drosophila RNAi Screening Center, 2013)
Purpose: 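Fly genes required for calcium entry once internal stores are emptied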 (primary screen). Cell system: Drosophila S2R+ cells. Knock-down reagent: long dsRNA against Drosophila genes, about 0.25 µg dsRNA per well, roughly 10,000 cells. Time to read-out: 5 days of knock-down before the calcium assay. Challenge: thapsigargin (SERCA pump blocker) to empty calcium stores; entry signal taken 4 min after adding it. Detection: 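Duplicate raw fluo-4 intensities per well from a plate reader, at rest and four minutes after thapsigargin emptied calcium stores; entry-to-rest ratio filled for only some wells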. Direction: calcium entry signal: higher = stronger calcium signal after store depletion; entry to resting ratio: higher = more calcium entry relative to resting level; resting calcium signal: higher = higher resting calcium signal. Call rule: 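Hit if the duplicate-averaged plate z-score for entry over resting signal is under −3; wells with weak total dye signal (Fmax z < −2) or more than 5 off-targets removed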. Meaning of the calls: active = strongly reduced calcium entry; inactive = no strong reduction.
The screen tested about 23,000 reagents; below is a random part of those with a known target gene and a result. Over the whole deposit, 75 (0.33%) were called active. 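Raw plate signals without normalisation; calls rest on plate z-scores that were not deposited; ratio present for only 364 wells.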 A plus sign joins genes that one reagent is predicted to hit. Not given: the dose of the treatment.

| gene | amplicon | calcium entry signal, replicate 1 (fluorescence units) | calcium entry signal, replicate 2 (fluorescence units) | entry to resting ratio | resting calcium signal, replicate 1 (fluorescence units) | resting calcium signal, replicate 2 (fluorescence units) | call |
| --- | --- | --- | --- | --- | --- | --- | --- |
| CG14416 | DRSC18639 | 3.12e7 | 5.65e7 | 2 | 1.56e7 | 2.10e7 | inactive |
| Ube4B | DRSC03277 | 4.20e7 | – | – | 2.15e7 | – | inactive |
| CG34404 | DRSC15335 | 4.06e7 | 5.69e7 | – | 1.89e7 | 6.73e7 | inactive |
| CG34404 | DRSC15978 | 3.88e7 | 4.73e7 | – | 1.57e7 | 1.97e7 | inactive |
| PolZ1 | DRSC06800 | 3.28e7 | 3.06e7 | – | 1.42e7 | 1.42e7 | inactive |
| CG8569 | DRSC07214 | 3.74e7 | 4.29e7 | – | 1.63e7 | 2.04e7 | inactive |
| CG12483 | DRSC08278 | 3.01e7 | 3.95e7 | – | 1.47e7 | 1.68e7 | inactive |
| rdgA | DRSC17863 | 2.91e7 | 3.11e7 | – | 1.48e7 | 1.63e7 | inactive |
| rdgA | DRSC18036 | 3.02e7 | 3.18e7 | – | 1.45e7 | 1.52e7 | inactive |
| rdgA | DRSC18827 | 3.35e7 | 3.27e7 | – | 1.56e7 | 1.56e7 | inactive |
| CG6729 | DRSC02984 | 4.25e7 | 3.51e7 | – | 1.84e7 | 1.55e7 | inactive |
| CG6729 | DRSC22793 | 3.69e7 | 3.68e7 | – | 1.86e7 | 1.82e7 | inactive |
| NTPase | DRSC00761 | 4.16e7 | – | – | 1.98e7 | – | inactive |
| nxf4 | DRSC12548 | 3.53e7 | 3.40e7 | – | 1.75e7 | 1.54e7 | inactive |
| RpS9 | DRSC11273 | 1.67e7 | 1.78e7 | – | 1.60e7 | 9.82e6 | inactive |
| CG10866 | DRSC08171 | 4.20e7 | 4.74e7 | – | 2.04e7 | 2.14e7 | inactive |
| CG5568 | DRSC10518 | 3.72e7 | 5.66e7 | – | 2.63e7 | 2.23e7 | inactive |
| CG5568 | DRSC22816 | 3.04e7 | 3.68e7 | – | 1.51e7 | 1.88e7 | inactive |
| Atpalpha | DRSC14119 | 5.50e7 | 3.84e7 | – | 2.43e7 | 1.75e7 | inactive |
| CG40341 (retired record) | DRSC01767 | 2.57e7 | 3.69e7 | – | 1.24e7 | 1.61e7 | inactive |
| CG40341 (retired record) | DRSC03750 | 3.17e7 | 6.88e7 | – | 1.43e7 | 2.65e7 | inactive |
| CycY | DRSC02420 | 4.41e7 | – | – | 2.18e7 | – | inactive |
| fid | DRSC14885 | 4.01e7 | 6.19e7 | – | 2.13e7 | 2.51e7 | inactive |
| fid | DRSC16464 | 4.26e7 | 5.38e7 | – | 2.28e7 | 2.25e7 | inactive |
| Tret1-2 | DRSC07117 | 2.96e7 | 4.60e7 | – | 1.61e7 | 2.10e7 | inactive |
| CG3008 | DRSC00560 | 3.40e7 | 3.94e7 | – | 1.60e7 | 1.79e7 | inactive |
| Ir87a | DRSC14836 | 3.25e7 | 6.57e7 | – | 1.68e7 | 6.91e7 | inactive |
| dnd | DRSC16064 | 4.34e7 | 5.05e7 | – | 8.39e7 | 2.48e7 | inactive |
| CG3916 | DRSC15520 | 3.48e7 | 2.42e7 | – | 1.76e7 | 1.38e7 | inactive |
| rush | DRSC18568 | 1.72e7 | 2.56e7 | – | 8.79e6 | 1.27e7 | inactive |
| meru | DRSC09400 | 3.53e7 | 3.52e7 | – | 1.57e7 | 1.58e7 | inactive |
| meru | DRSC09899 | 3.53e7 | 5.10e7 | – | 1.73e7 | 2.00e7 | inactive |
| meru | DRSC10215 | 4.18e7 | 5.97e7 | – | 2.00e7 | 2.29e7 | inactive |
| Hgsnat | DRSC18405 | 2.72e7 | 2.13e7 | – | 1.11e7 | 1.02e7 | inactive |
| Ciz1 | DRSC09675 | 1.81e7 | 2.97e7 | – | 1.15e7 | 1.52e7 | inactive |

No new results follow: an excerpt of the list.
| gene | amplicon | calcium entry signal, replicate 1 (fluorescence units) | calcium entry signal, replicate 2 (fluorescence units) | entry to resting ratio | resting calcium signal, replicate 1 (fluorescence units) | resting calcium signal, replicate 2 (fluorescence units) | call |
| --- | --- | --- | --- | --- | --- | --- | --- |
| CG8569 | DRSC07214 | 3.74e7 | 4.29e7 | – | 1.63e7 | 2.04e7 | inactive |
| CG12483 | DRSC08278 | 3.01e7 | 3.95e7 | – | 1.47e7 | 1.68e7 | inactive |
| rdgA | DRSC17863 | 2.91e7 | 3.11e7 | – | 1.48e7 | 1.63e7 | inactive |
| rdgA | DRSC18036 | 3.02e7 | 3.18e7 | – | 1.45e7 | 1.52e7 | inactive |
| rdgA | DRSC18827 | 3.35e7 | 3.27e7 | – | 1.56e7 | 1.56e7 | inactive |

Next records follow.
| gene | amplicon | calcium entry signal, replicate 1 (fluorescence units) | calcium entry signal, replicate 2 (fluorescence units) | entry to resting ratio | resting calcium signal, replicate 1 (fluorescence units) | resting calcium signal, replicate 2 (fluorescence units) | call |
| --- | --- | --- | --- | --- | --- | --- | --- |
| CR44003 + CG44002 | DRSC00523 | 4.66e7 | – | – | 2.68e7 | – | inactive |
| CR44003 + CG44002 | DRSC00606 | 2.38e7 | 2.20e7 | – | 1.25e7 | 1.13e7 | inactive |
| CG12259 | DRSC14486 | 3.14e7 | 4.52e7 | – | 1.72e7 | 2.00e7 | inactive |
| CG12259 | DRSC23281 | 4.85e7 | 4.44e7 | – | 2.58e7 | 1.84e7 | inactive |
| CG7131 | DRSC16203 | 5.73e7 | 4.04e7 | – | 2.60e7 | 1.67e7 | inactive |
| CG15743 | DRSC19709 | 3.69e7 | 5.16e7 | – | 1.77e7 | 2.32e7 | inactive |
| gammaTub37C | DRSC03535 | 4.53e7 | – | – | 2.40e7 | – | inactive |
| CG13358 | DRSC18534 | 3.35e7 | 4.37e7 | 2.1 | 1.58e7 | 1.65e7 | inactive |
| Sin1 | DRSC05965 | 4.50e7 | 4.26e7 | – | 2.01e7 | 2.12e7 | inactive |
| CG14142 | DRSC10145 | 2.35e7 | 4.39e7 | – | 1.32e7 | 1.70e7 | inactive |
| CG15160 | DRSC02461 | 3.36e7 | 4.32e7 | – | 1.72e7 | 1.82e7 | inactive |
| mthl15 | DRSC01120 | 3.72e7 | 4.99e7 | – | 1.86e7 | 2.27e7 | inactive |
| CG9536 | DRSC03254 | 5.13e7 | – | – | 3.13e7 | – | inactive |
| Blimp-1 | DRSC10496 | 3.27e7 | 4.57e7 | – | 1.61e7 | 2.11e7 | inactive |
| Pvr | DRSC03080 | 3.11e7 | – | – | 2.46e7 | – | active |
| dany | DRSC04141 | 4.52e7 | 5.00e7 | – | 2.19e7 | 2.29e7 | inactive |
| CG7992 | DRSC20070 | 5.12e7 | 6.10e7 | – | 2.60e7 | 2.58e7 | inactive |
| Krn | DRSC11202 | 3.54e7 | 6.44e7 | – | 2.07e7 | 2.72e7 | inactive |
| qkr58E-3 | DRSC04711 | 4.20e7 | – | – | 2.13e7 | – | inactive |
| lncRNA:CR43314 | DRSC01216 | 4.30e7 | 5.57e7 | – | 1.91e7 | 2.49e7 | inactive |
| lncRNA:CR43314 | DRSC21354 | 3.41e7 | 3.75e7 | – | 1.88e7 | 1.73e7 | inactive |
| CG13157 | DRSC06282 | 3.05e7 | 4.28e7 | – | 1.62e7 | 1.86e7 | inactive |
| CG13603 | DRSC14606 | 3.01e7 | 2.67e7 | – | 1.37e7 | 1.19e7 | inactive |
